Results reported in paper PMC10714400 (ACS Infectious Diseases, 2023).

Assay: general procedure: Fmoc solid-phase peptide synthesis; Rink Amide LL resin (100–200 mesh), 0.29 mmol/g; DIC / OxymaPure
Settings: whole synthesis; for isolated yield: scale of the general procedure 0.116 mmol (400 mg of resin)

Substance | isolated mass [mg] | isolated yield [%]
KKLLKLLKLLL | 84.0 | 58.0
KKLLKLLKlll | 54.1 | 26.2
KKLLKllklll | 38.0 | 18.4
KkLlKlLkLlL | 35.6 | 17.3
VDKPPYLPRPRPPRRIYNR | 111.0 | 34.0
kKLLKLLKLLl | 77.4 | 37.5
kKLLKLLkLLl | 69.0 | 33.5
kKlLkLlKlLl | 55.6 | 27.0
kkLLkLLKLLL | 77.5 | 37.6
kkLLkLLkLLL | 102.6 | 70.9
kkllkllklll | 22.8 | 11.0

Plain letter strings leave the end groups untold.
